According to article PMC4916389:
These are yes or no findings as the source states them, for the method shown. Some results given as binding are weak or reduced against the parent protein; the word gives no strength. Tags and fused reporters may be left off the sequences shown.

Target: TAP42, yeast two-hybrid fusion (Sordaria macrospora) (UniProt F7VNJ5)
Assay: two-hybrid; Gal4 AD (pGADT7 derivatives, PJ69-4a) and BD (pGBKT7 derivatives, PJ69-4α) fusions in mated diploid S. cerevisiae; growth on SD medium lacking adenine, histidine, leucine and tryptophan/uracil; transactivating constructs pB-pp2Ac1, pB-pro11, pB-Smmob3 and pB-ENT1 omitted

B1: TAP42, yeast two-hybrid fusion (protein, UniProt F7VNJ5 1-406)
chain: MSDQEPRSLKATFAAAEEKRLSLENSPPNPSDYADTLSAAIKLYQSCLSQISILSLFSSNEGLEDLNTNDLPYLLVNYHLAELIQKIPSPTPSPAERKRLLDQAREAYERYLHLLDSYEGLLNPTYKKRLERYTDSPTEFTVAGASASDPNARRNAKIANFKAEKELRQKLAYLRQRPEYAAADLELDDDESTTDQTGGGGNTGDEEVVRSVHLAHLDLCTHLTFQALESLNREMEVLNMAPREPASLPSAQLRGNNQAGAGNDMGAQDDLRRRQGGADPRDYSDRLDMPLSRLQGILGGSGPILSKEGRPLRPFTLTGTRQEIAKGVFRPSHNLPTMSIDEYLEEERRRGGIIEGGGEASWKAGEKNPDDEDDHEKLDAETMKARAWDEFVEANPKGAGNTLNRG
Q: For B1, which binding is on record?
A: binds
